Values joined by “and” are separate entries in the source; they are usually repeats but may differ in a detail not shown here. Equal values may be shown once.
System: 67 genes on the fibrosis gene panel
Assay: Multiplexed fibrosis gene panel (QuantiGene 2.0 Plex / Bioplex) on liver RNA
Conditions: for Gapdh / Hprt1 / Ppib: housekeeping normalization gene, liver RNA, individual animals, Carbon Tetrachloride 200, Bromobenzene 785, Dexamethasone 1 mg/kg
[1] = 4,4′-MDA 22 mg/kg, animals 89-92
[2] = 4,4′-MDA 59.7 mg/kg, animals 93-96
[3] = 4,4′-MDA 162 mg/kg, animals 97-100
[4] = Carbon Tetrachloride 200 mg/kg, animal 54
[5] = Allyl Alcohol 9.7 mg/kg, animals 9-12
[6] = Allyl Alcohol 20.9 mg/kg, animals 13-16
[7] = Allyl Alcohol 45 mg/kg, animals 17, 18, 20

Molecule: Nc1ccc(Cc2ccc(N)cc2)cc1 [4,4′-methylenedianiline]
- Gapdh (housekeeping normalization gene) [1]: 2112 and 2068 and 1825.5 and 1732.5
- Hprt1 (housekeeping normalization gene) [1]: 577.5 and 739.8 and 496.5 and 405.5
- Ppib (housekeeping normalization gene) [1]: 1429.5 and 1416.3 and 1158 and 1094.3
- Gapdh (housekeeping normalization gene) [2]: 2384 and 3133 and 2922.5 and 2508
- Hprt1 (housekeeping normalization gene) [2]: 1089.8 and 1052.3 and 1451 and 2073.5
- Ppib (housekeeping normalization gene) [2]: 1414.8 and 1548.8 and 1852 and 1909.5
- Gapdh (housekeeping normalization gene) [3]: 2700.5 and 2891.3 and 2103.5 and 2272
- Hprt1 (housekeeping normalization gene) [3]: 2119.3 and 2624 and 1897.8 and 2070.5
- Ppib (housekeeping normalization gene) [3]: 1795.8 and 2013.5 and 1461 and 1412.5

Molecule: Brc1ccccc1 [bromobenzene]
- Gapdh: 2931.8 and 2799.3 and 2968.3 and 2811
- Hprt1: 1715 and 1739.5 and 1380 and 1716
- Ppib: 1675.5 and 1900 and 1655.3 and 1677.3

Molecule: ClC(Cl)(Cl)Cl [carbon tetrachloride]
- Gapdh (housekeeping normalization gene) [4]: 2379.5
- Hprt1 (housekeeping normalization gene) [4]: 569
- Ppib (housekeeping normalization gene) [4]: 1274.8
- Gapdh: 2608 and 2613.3 and 2661.3
- Hprt1: 735.3 and 656 and 561.5
- Ppib: 1972.8 and 1801.5 and 1853.8

Molecule: C[C@@H]1C[C@H]2[C@@H]3CCC4=CC(=O)C=C[C@]4(C)[C@@]3(F)[C@@H](O)C[C@]2(C)[C@@]1(O)C(=O)CO [dexamethasone]
- Gapdh: 2151.5 and 1813.3 and 2471 and 3013.3
- Hprt1: 324.3 and 278.5 and 478.5 and 537.5
- Ppib: 1332.3 and 982.3 and 1040 and 1524.8

Molecule: allyl alcohol
- Gapdh (housekeeping normalization gene) [5]: 1566.3 and 1899 and 2050.3 and 1558
- Hprt1 (housekeeping normalization gene) [5]: 431.3 and 482.5 and 455 and 501.3
- Ppib (housekeeping normalization gene) [5]: 1091.5 and 1442.5 and 1395.5 and 1320.5
- Gapdh (housekeeping normalization gene) [6]: 1911.5 and 2293 and 2276 and 1773.8
- Hprt1 (housekeeping normalization gene) [6]: 593.8 and 565 and 581 and 463.5
- Ppib (housekeeping normalization gene) [6]: 1609 and 1773.5 and 1742.5 and 1158
- Hprt1 (housekeeping normalization gene) [7]: 547.5 and 896.8 and 740
- Ppib (housekeeping normalization gene) [7]: 1372.8 and 2253.5 and 1995.8
